# Data published in the supplement of paper PMC8728848.
# Some of the results follow.
# B1: SHCBP1-GST (Homo sapiens), Q8NEM2 (protein)
# chain: MADGSLTGGGLEAAAMAPERMGWAVEQELASLEKGLFQDEDSCSDCSYRDKPGSSLQSFMPEGKTFFPEIFQTNQLLFYERFRAYQDYILADCKASEVQEFTAEFLEKVLEPSGWRAVWHTNVFKVLVEITDVDFAALKAVVRLAEPYLCDSQVSTFTMECMKELLDLKEHRLPLQELWVVFDDSGVFDQTALAIEHVRFFYQNIWRSWDEEEEDEYDYFVRCVEPRLRLHYDILEDRVPSGLIVDYHNLLSQCEESYRKFLNLRSSLSNCNSDSEQENISMVEGLKLYSEMEQLKQKLKLIENPLLRYVFGYQKNSNIQAKGVRSSGQKITHVVSSTMMAGLLRSLLTDRLCQEPGEEEREIQFHSDPLSAINACFEGDTVIVCPGHYVVHGTFSIADSIELEGYGLPDDIVIEKRGKGDTFVDCTGADIKISGIKFVQHDAVEGILIVHRGKTTLENCVLQCETTGVTVRTSAEFLMKNSDLYGAKGAGIEIYPGSQCTLSDNGIHHCKEGILIKDFLDEHYDIPKISMVNNIIHNNEGYGVVLVKPTIFSDLQENAEDGTEENKALKIQTSGEPDVAERVDLEELIECATGKMELCARTDPSEQVEGNCEIVNELIAASTQKGQIKKKRLSELGITQADDNLMSQEMFVGIVGNQFKWNGKGSFGTFLF
# Tests used:
# Assay in all cases: glycan array binding signal (z-score within array); higher = stronger binding
# Settings in all cases: glycan notation: IUPAC condensed, linker removed
# [1] = target: Gal(b1-4)GalNAc(b1-3)[Fuc(a1-2)]Gal(b1-4)GlcNAc
# Method in brief: (§1)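 The binding signal is a Z-score computed within each array and averaged over linkers. Arrays of the same protein sequence at different concentrations or buffers were also averaged together. Data originate from 3228 arrays in the Consortium for Functional Glycomics database, kept only where the protein sequence was available.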
# Gal(b1-4)Glc = target: Gal(b1-4)Glc
# Method in brief: as §1
# Gal(b1-4)Glc6S = target: Gal(b1-4)Glc6S
# Method in brief: as §1
# Gal(b1-4)GlcNAc = target: Gal(b1-4)GlcNAc
# Method in brief: as §1
# [2] = target: Gal(b1-4)GlcNAc(a1-6)Gal(b1-4)GlcNAc
# Method in brief: as §1
# Gal(b1-4)GlcNAc(b1-2)Man = target: Gal(b1-4)GlcNAc(b1-2)Man
# Method in brief: as §1
# [3] = target: Gal(b1-4)GlcNAc(b1-2)Man(a1-3)Man(b1-4)GlcNAc(b1-4)GlcNAc
# Method in brief: as §1
# [4] = target: Gal(b1-4)GlcNAc(b1-2)Man(a1-3)[Gal(b1-4)GlcNAc(b1-2)Man(a1-6)]Man(b1-4)GlcNAc(b1-4)GlcNAc
# Method in brief: as §1
# [5] = target: Gal(b1-4)GlcNAc(b1-2)Man(a1-3)[Gal(b1-4)GlcNAc(b1-2)Man(a1-6)]Man(b1-4)GlcNAc(b1-4)[Fuc(a1-6)]GlcNAc
# Method in brief: as §1
# [6] = target: Gal(b1-4)GlcNAc(b1-2)Man(a1-3)[Gal(b1-4)GlcNAc(b1-2)Man(a1-6)][Gal(b1-4)GlcNAc(b1-4)]Man(b1-4)GlcNAc(b1-4)[Fuc(a1-6)]GlcNAc
# Method in brief: as §1
# [7] = target: Gal(b1-4)GlcNAc(b1-2)Man(a1-3)[Gal(b1-4)GlcNAc(b1-2)Man(a1-6)][GlcNAc(b1-4)]Man(b1-4)GlcNAc(b1-4)[Fuc(a1-6)]GlcNAc
# Method in brief: as §1
# [8] = target: Gal(b1-4)GlcNAc(b1-2)Man(a1-3)[GlcNAc(b1-2)Man(a1-6)]Man(b1-4)GlcNAc(b1-4)GlcNAc
# Method in brief: as §1
# [9] = target: Gal(b1-4)GlcNAc(b1-2)Man(a1-3)[GlcNAc(b1-4)][Gal(b1-4)GlcNAc(b1-2)Man(a1-6)]Man(b1-4)GlcNAc(b1-4)GlcNAc
# Method in brief: as §1
# [10] = target: Gal(b1-4)GlcNAc(b1-2)Man(a1-3)[Man(a1-6)]Man(b1-4)GlcNAc(b1-4)GlcNAc
# Method in brief: as §1
# [11] = target: Gal(b1-4)GlcNAc(b1-2)Man(a1-6)Man(b1-4)GlcNAc(b1-4)GlcNAc
# Method in brief: as §1
# [12] = target: Gal(b1-4)GlcNAc(b1-2)Man(a1-6)[GlcNAc(b1-2)Man(a1-3)]Man(b1-4)GlcNAc(b1-4)GlcNAc
# Method in brief: as §1
# [13] = target: Gal(b1-4)GlcNAc(b1-2)Man(a1-6)[Man(a1-3)]Man(b1-4)GlcNAc(b1-4)GlcNAc
# Method in brief: as §1
# [14] = target: Gal(b1-4)GlcNAc(b1-2)[Gal(b1-4)GlcNAc(b1-4)]Man(a1-3)[Gal(b1-4)GlcNAc(b1-2)Man(a1-6)]Man(b1-4)GlcNAc(b1-4)GlcNAc
# Method in brief: as §1
# [15] = target: Gal(b1-4)GlcNAc(b1-2)[Gal(b1-4)GlcNAc(b1-4)]Man(a1-3)[Gal(b1-4)GlcNAc(b1-2)[Gal(b1-4)GlcNAc(b1-6)]Man(a1-6)]Man(b1-4)GlcNAc(b1-4)GlcNAc
# Method in brief: as §1
# [16] = target: Gal(b1-4)GlcNAc(b1-2)[Gal(b1-4)GlcNAc(b1-4)]Man(a1-3)[GlcNAc(b1-4)][Gal(b1-4)GlcNAc(b1-2)Man(a1-6)]Man(b1-4)GlcNAc(b1-4)GlcNAc
# Method in brief: as §1
# [17] = target: Gal(b1-4)GlcNAc(b1-2)[Gal(b1-4)GlcNAc(b1-4)]Man(a1-3)[GlcNAc(b1-4)][Gal(b1-4)GlcNAc(b1-2)[Gal(b1-4)GlcNAc(b1-6)]Man(a1-6)]Man(b1-4)GlcNAc(b1-4)GlcNAc
# Method in brief: as §1
# [18] = target: Gal(b1-4)GlcNAc(b1-2)[Gal(b1-4)GlcNAc(b1-6)]Man(a1-6)[Gal(b1-4)GlcNAc(b1-2)Man(a1-3)]Man(b1-4)GlcNAc(b1-4)GlcNAc
# Method in brief: as §1
# [19] = target: Gal(b1-4)GlcNAc(b1-2)[Gal(b1-4)GlcNAc(b1-6)]Man(a1-6)[Gal(b1-4)GlcNAc(b1-2)Man(a1-3)]Man(b1-4)GlcNAc(b1-4)[Fuc(a1-6)]GlcNAc
# Method in brief: as §1
# [20] = target: Gal(b1-4)GlcNAc(b1-2)[Gal(b1-4)GlcNAc(b1-6)]Man(a1-6)[GlcNAc(b1-4)][Gal(b1-4)GlcNAc(b1-2)Man(a1-3)]Man(b1-4)GlcNAc(b1-4)GlcNAc
# Method in brief: as §1
# [21] = target: Gal(b1-4)GlcNAc(b1-2)[Gal(b1-4)GlcNAc(b1-6)]Man(a1-6)[GlcNAc(b1-4)][Gal(b1-4)GlcNAc(b1-2)[Gal(b1-4)GlcNAc(b1-4)]Man(a1-3)]Man(b1-4)GlcNAc(b1-4)[Fuc(a1-6)]GlcNAc
# Method in brief: as §1
# [22] = target: Gal(b1-4)GlcNAc(b1-3)Gal(b1-3)GalNAc
# Method in brief: as §1
# [23] = target: Gal(b1-4)GlcNAc(b1-3)Gal(b1-3)GlcNAc
# Method in brief: as §1
# [24] = target: Gal(b1-4)GlcNAc(b1-3)Gal(b1-4)Glc
# Method in brief: as §1
# [25] = target: Gal(b1-4)GlcNAc(b1-3)Gal(b1-4)GlcNAc
# Method in brief: as §1
# [26] = target: Gal(b1-4)GlcNAc(b1-3)Gal(b1-4)GlcNAc(b1-2)Man(a1-3)[Gal(b1-4)GlcNAc(b1-3)Gal(b1-4)GlcNAc(b1-2)Man(a1-6)]Man(b1-4)GlcNAc(b1-4)GlcNAc
# Method in brief: as §1
binder,measurement,setting,value
B1,glycan array binding signal (z-score),[1],-0.953
same,glycan array binding signal (z-score),Gal(b1-4)Glc,0.02
same,glycan array binding signal (z-score),Gal(b1-4)Glc6S,-0.107
same,glycan array binding signal (z-score),Gal(b1-4)GlcNAc,-0.166
same,glycan array binding signal (z-score),[2],-0.736
same,glycan array binding signal (z-score),Gal(b1-4)GlcNAc(b1-2)Man,0.293
same,glycan array binding signal (z-score),[3],-0.705
same,glycan array binding signal (z-score),[4],1.64
same,glycan array binding signal (z-score),[5],0.409
same,glycan array binding signal (z-score),[6],-0.811
same,glycan array binding signal (z-score),[7],-1.17
same,glycan array binding signal (z-score),[8],0.361
same,glycan array binding signal (z-score),[9],-0.882
same,glycan array binding signal (z-score),[10],0.6
same,glycan array binding signal (z-score),[11],-0.665
same,glycan array binding signal (z-score),[12],-0.694
same,glycan array binding signal (z-score),[13],-0.509
same,glycan array binding signal (z-score),[14],-0.348
same,glycan array binding signal (z-score),[15],-0.974
same,glycan array binding signal (z-score),[16],0.176
same,glycan array binding signal (z-score),[17],-0.369
same,glycan array binding signal (z-score),[18],0.147
same,glycan array binding signal (z-score),[19],5.01
same,glycan array binding signal (z-score),[20],-0.751
same,glycan array binding signal (z-score),[21],-0.032
same,glycan array binding signal (z-score),[22],-0.645
same,glycan array binding signal (z-score),[23],-0.681
same,glycan array binding signal (z-score),[24],0.172
same,glycan array binding signal (z-score),[25],0.516
same,glycan array binding signal (z-score),[26],1.68

# Quoted at random: two entries already listed.
binder,measurement,setting,value
B1,glycan array binding signal (z-score),Gal(b1-4)GlcNAc(b1-2)Man,0.293
same,glycan array binding signal (z-score),[9],-0.882
